# Reference: PubChem BioAssay AID651640 (Broad Institute, 2012)
# Among all 350,000 compounds or so, about 6,000 (1.7%) were called active. This list was built around the results that the source calls inconclusive (neither active nor inactive); the mix of calls is not that of the screen. Cut-off read from the data, not from the text of the source: active = CPE inhibition above about 20% (passing the limit was not always enough); inconclusive = no clear call, values can overlap the other calls; tested in BHK-21 cells.
# Assay: protection of cells from dengue 2 killing – plate reader, single concentration, primary screen (AID 651640);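 note: 0% = median of neutral control wells and 100% = median of positive control wells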
# Settings: DENV2-infected cells, cytopathic effect rescue, at 9.99 µM, hits give high values
row,SMILES,CPE inhibition
1,CCC(C(=O)Nc1c(C)cccc1C)n1c(-c2ccc(=O)[nH]c2)nc2ccccc21 (centres undefined),active: 32.7%
2,Cc1ccc(C(=O)N/C(=C/c2cccs2)C(=O)NCc2ccco2)cc1,inconclusive: 25%
3,O=C1N(Cc2ccccc2)Cc2ccccc2[C@@H]2OC(c3ccc(OCCCO)cc3)=N[C@]12Cc1ccccc1,active: 26.5%
4,COc1ccc(C2c3ccc(O)cc3Oc3ncn4nc(-c5ccccn5)nc4c32)cc1OC (centres undefined),inactive: -7.08%
5,Cn1cnc2c(NCc3ccco3)ncnc21,inconclusive: 32.1%
6,N#C[C@@H]1[C@@H](c2ccc(C#Cc3ccccc3F)cc2)[C@H](CO)N1C(=O)C1CCCCC1,inactive: 2.93%
7,O=C(Nc1ccccc1F)N1CC(=O)N2[C@H](CO)[C@@H](c3ccc(-c4ccccc4)cc3)[C@H]2C1,active: 43.2%
8,C/C(=N\NC(=O)C1CCCC1)c1ccc(NC(=O)C(F)(F)F)cc1,inconclusive: 24.9%
9,CN(C[C@H]1[C@H](c2ccccc2)[C@@H](CO)N1C(=O)C1CC1)C(=O)c1ccccn1,inconclusive: 82.8%
10,CNC[C@@H]1Oc2ncc(Br)cc2C(=O)N([C@H](C)CO)C[C@@H]1C,inconclusive: 30.7%
11,C[C@@H](NC(=O)C[C@H]1CC[C@H]2[C@@H](COC[C@H](O)CN2C(=O)Nc2cccc(Cl)c2)O1)c1ccccc1,inactive: 5.85%
12,CC1CCN(S(=O)(=O)c2cnc(Cl)c(Br)c2)CC1,inconclusive: 50.2%
13,Cc1ccc(O)c(NC(=O)CN(C)S(=O)(=O)c2ccc(Cl)cc2)c1,inconclusive: 21.1%
14,C[C@@H]1CCCCO[C@@H](CN(C)CC2CCCCC2)[C@@H](C)CN([C@@H](C)CO)C(=O)c2cc(NC(=O)CCC(F)(F)F)ccc2O1,active: 29.9%
15,N#Cc1ccccc1OCC(=O)NC(=O)NC1CCS(=O)(=O)C1 (centres undefined),inconclusive: 42.1%
16,COc1ccc(OC(=O)CCc2c[nH]c3ccccc23)cc1,inconclusive: 32.5%
17,CCC(CC)C(=O)Nc1cc(C(=O)OC)ccc1C(=O)OC,inconclusive: 58.6%
18,COc1cccc(-c2nc(N3CCN(C)CC3)c3ccccc3n2)c1O,inactive: 4.18%
19,COc1ccccc1NC(=O)N1C[C@H]2[C@@H](c3ccccc31)[C@H](CO)N2C(C)=O,active: 20.5%
20,Cc1ccc(S(=O)(=O)N2C[C@@H]3[C@H]4CC[C@H](C4)[C@@H]3[C@@H](C)[C@@H]2c2cn(Cc3ccccc3)c3ncccc23)cc1,inactive: 11%
21,COc1ccc2nc3n(c(=O)c2c1)-c1ccccc1C(=O)NC3Cc1ccccc1 (centres undefined),active: 89.3%
22,CCOc1ccc(S(=O)(=O)NCCC(=O)N2CCN(C(C)=O)CC2)cc1,inconclusive: 40.9%
23,C[C@H]1CN([C@@H](C)CO)C(=O)c2cc(NS(=O)(=O)c3ccc(Cl)cc3)ccc2O[C@@H]1CN(C)S(=O)(=O)c1cccs1,active: 39.2%
24,COc1ccc(C(=O)CCNc2ccc(C)c(Cl)c2)cc1,inconclusive: 57.2%
25,COc1ccc(-c2c(-c3ccc4c(c3)OCO4)c3ccccc3n2C)cc1,inconclusive: 41.5%

# A second format for part of the listing above:
row	SMILES	CPE inhibition
13	Cc1ccc(O)c(NC(=O)CN(C)S(=O)(=O)c2ccc(Cl)cc2)c1	inconclusive: 21.1%
14	C[C@@H]1CCCCO[C@@H](CN(C)CC2CCCCC2)[C@@H](C)CN([C@@H](C)CO)C(=O)c2cc(NC(=O)CCC(F)(F)F)ccc2O1	active: 29.9%
15	N#Cc1ccccc1OCC(=O)NC(=O)NC1CCS(=O)(=O)C1 (centres undefined)	inconclusive: 42.1%
16	COc1ccc(OC(=O)CCc2c[nH]c3ccccc23)cc1	inconclusive: 32.5%

# (cont.)

row,SMILES,CPE inhibition
1,C[C@H](CO)N1C[C@H](C)[C@@H](CN(C)S(=O)(=O)c2ccc(Cl)cc2)Oc2ccc(NS(=O)(=O)c3ccc(F)cc3)cc2CC1=O,inconclusive: 61.3%
2,CCc1cccc(CC)c1NC(=O)C1CSC2(C)CCC(=O)N12 (centres undefined),inconclusive: 54.8%
3,Cc1cc2ccccn2c1C(=O)c1ccccc1Br,active: 41.7%
4,COC(=O)c1cccc(NC(=O)c2ccc3c(c2)C(=O)N(C(C)(C)C)C3=O)c1,inconclusive: 29.2%
5,Cc1noc(C)c1NC(=O)Nc1ccc2c(c1)C(=O)N([C@H](C)CO)C[C@@H](C)[C@@H](CN(C)S(=O)(=O)c1ccc(F)cc1)OCCCC[C@H](C)O2,inconclusive: 51%
6,Cc1ccc2[nH]c(=O)c(CN(CC3COCCO3)C(=O)Nc3ccccc3F)cc2c1 (centres undefined),inconclusive: 24.7%
7,Cc1ccc(S(=O)(=O)N(C)Cc2ccccc2)cc1C(=O)N1CCCCC1,inconclusive: 25.8%
8,O=C(CC(F)(F)F)N1C[C@H]2[C@@H](c3ccccc31)[C@@H](CO)N2C(=O)c1ccncc1,inconclusive: 23.5%
9,C[C@H](CO)N1C[C@H](C)[C@@H](CN(C)S(C)(=O)=O)Oc2ccc(NS(=O)(=O)c3ccc(F)cc3)cc2CC1=O,inactive: -5.48%
10,C=CCN1c2ccc(Br)cc2C(=O)CS1(=O)=O,inconclusive: 53.6%
11,CCCN1C[C@@H](C)[C@H](OC)CN(C)C(=O)c2ccc(NS(=O)(=O)c3ccccc3)cc2OC[C@@H]1C,active: 37.2%
12,O=C(O)CCCCCCCCc1cn(CCc2c[nH]c3ccccc23)nn1,active: 20.6%
13,O=C1CCc2cc(S(=O)(=O)N3CCC(C(=O)Nc4nccs4)CC3)ccc2N1,inconclusive: 76.6%
14,O=C(c1ccc(Cl)c(Cl)c1)N1CCC(=O)N(C(COCc2cccc(C(F)(F)F)c2)Cc2ccccc2)CC1 (centres undefined),inconclusive: 69.9%
15,C[C@H]1CN([C@@H](C)CO)C(=O)c2cc(C3=CCCCC3)cnc2O[C@H]1CN(C)C(=O)c1ccc2c(c1)OCO2,inactive: -7.99%
16,O=S(=O)(NCc1ccccn1)c1cc(C(F)(F)F)ccc1Cl,inactive: -5.62%
17,COc1cccc(CN2CCCCN3[C@@H](CO)[C@H](c4ccc(C#Cc5cccnc5)cc4)[C@@H]3C2)c1,inconclusive: 23.8%
18,Cc1ccc(NC(=O)C2(C)CCN2Cc2ccccc2OC(F)F)cc1 (centres undefined),inconclusive: 38.3%
19,O=C(O)C1C2C=CC(C2)C1C(=O)NCc1ccccc1 (centres undefined),active: 23.9%
20,O=C(Nc1ccc(F)cc1)N1CC(=O)N2[C@H](CO)[C@H](c3ccc(C#Cc4ccc(F)cc4)cc3)[C@H]2C1,inconclusive: 42.1%
21,CC=Cc1ccc2n(c1=O)C[C@H]1[C@H](CO)[C@@H](C(=O)N3CCc4ccccc4C3)N(C(=O)COC)[C@@H]21 (mixture of isomers),inactive: 0.57%
22,COc1ccc(S(=O)(=O)N(C)C[C@@H]2Oc3ccc(NC(=O)c4ccncc4)cc3C(=O)N([C@@H](C)CO)C[C@@H]2C)cc1,inactive: 16.3%
23,O=C(C[C@@H]1CC[C@@H](NC(=O)CCN2CCCCC2)[C@H](CO)O1)Nc1nccs1,inactive: -0.554%
24,O=C(C1CCCC1)N1CCC(CC2CC(c3ccc(Cl)cc3)=NO2)(C(=O)NCC2CCCCC2)CC1 (centres undefined),inactive: -9.34%
25,COc1cc(NC(=O)c2ccccc2[N+](=O)[O-])ccc1NC(=O)c1cc2ccccc2o1,inconclusive: 27.7%

row,SMILES,CPE inhibition
1,O=C(O)CCCNC(=O)/C(=C\c1ccccc1F)NC(=O)c1ccccc1,inconclusive: 26.8%
2,O=C(CNC(=O)c1ccco1)Nc1ccc(N2CCCCCC2)cc1,inactive: -9.23%
3,Cc1cc(C)cc(C(=O)NC(CC(N)=O)c2ccc(N3CCC(Br)CC3)c([N+](=O)[O-])c2)c1 (centres undefined),inconclusive: 28.7%
4,O=C(C[C@@H]1C[C@H]2c3cc(NC(=O)c4ccc5c(c4)OCO5)ccc3O[C@H]2[C@@H](CO)O1)NCC1CC1,active: 26.8%
5,CC(NC(=O)C1CCN(c2nnc(N3CCCC3=O)s2)CC1)c1ccccc1 (centres undefined),inactive: -1.53%
6,COc1ccc(Cl)cc1NC(=O)COC(C)=O,inactive: 1.6%
7,Cc1ccccc1C(=O)N1CCC2CC1c1cc(Cl)ccc12 (centres undefined),inconclusive: 24.2%
8,CC1=NN(C(=O)c2cccc(Cn3nc(C)c([N+](=O)[O-])c3C)c2)C(O)(C(F)(F)F)C1 (centres undefined),inactive: -4.15%
9,CCOc1cc(C(F)(F)F)cnc1/C(N)=N/O,inconclusive: 28.1%
10,CCNC(=O)CSc1nnc(-c2cc(-c3ccc(Cl)cc3)nc3ccccc23)o1,inconclusive: 34.9%
11,COc1ccc([C@H]2CC(=O)C=C(c3cccc(F)c3OC)C2)cc1,inconclusive: 56.1%
12,CCCCCCn1c(=O)n2n(c1=O)[C@@H]1CN(S(=O)(=O)c3ccc(C)cc3)C[C@]1(O)[C@@H](OC(=O)NC1CC1)C2,inconclusive: 53.5%
13,Cc1ccc(S(=O)(=O)Nc2ccc3c(c2)C(=O)N([C@H](C)CO)C[C@H](C)[C@H](CN(C)S(=O)(=O)c2ccc(Cl)cc2)OCCCC[C@@H](C)O3)cc1,active: 65.8%
14,COc1ccc2c3c(n(C)c2c1)[C@H](CO)N(C(=O)c1ccccn1)CC31CCN(C(=O)c2ccccn2)CC1,inactive: 3.77%
15,CN(C)C(=O)[C@H]1[C@H](CO)[C@H]2Cn3c(ccc(C4=CCCCC4)c3=O)[C@@H]1N2Cc1ccncc1,active: 35.7%
16,Cc1nc2ccc(N)cc2s1,inconclusive: 52.3%
17,Cc1ccc(S(=O)(=O)N[C@@H]2C=C[C@@H](CC(=O)N3CCc4ccccc4C3)O[C@@H]2CO)cc1,active: 28.2%
18,Nc1nonc1-n1nnc(C(=O)N/N=C/c2cccnc2)c1CSC1=NCCS1,inconclusive: 39.4%
19,C[C@@H]1CN([C@H](C)CO)C(=O)Cc2cc(NC(=O)Cc3cn(C)c4ccccc34)ccc2O[C@H]1CN(C)Cc1ccc(C(F)(F)F)cc1,active: 33%
20,CCOC(=O)CN1C(=O)N[C@@H](CCc2ccccc2)[C@@H](C(=O)OC)[C@H]1C,inconclusive: 22.4%
21,CC1(C(=O)NS(=O)(=O)c2ccccc2)CCN1C(=O)Cc1cc(F)ccc1F (centres undefined),inconclusive: 27.4%
22,Cc1cc(NS(=O)(=O)c2ccc(NC(=O)C(C)Oc3cccc(C)c3C)cc2)nc(C)n1 (centres undefined),inconclusive: 43.4%
23,NC(=O)c1ccsc1NC(=O)COC(=O)[C@@H]1CCCN1C(=O)c1cccs1,active: 122%
24,COc1ccccc1NC(=O)N(C)C[C@@H]1Oc2ncc(C#CC(C)C)cc2C(=O)N([C@@H](C)CO)C[C@@H]1C,inactive: -0.094%
